# Reference: paper PMC4275242
# Sequences of proteins named here, by UniProt entry; tags and fusion partners are left off. Residues count along the entry.
# UniProt P02545, residues 1-646: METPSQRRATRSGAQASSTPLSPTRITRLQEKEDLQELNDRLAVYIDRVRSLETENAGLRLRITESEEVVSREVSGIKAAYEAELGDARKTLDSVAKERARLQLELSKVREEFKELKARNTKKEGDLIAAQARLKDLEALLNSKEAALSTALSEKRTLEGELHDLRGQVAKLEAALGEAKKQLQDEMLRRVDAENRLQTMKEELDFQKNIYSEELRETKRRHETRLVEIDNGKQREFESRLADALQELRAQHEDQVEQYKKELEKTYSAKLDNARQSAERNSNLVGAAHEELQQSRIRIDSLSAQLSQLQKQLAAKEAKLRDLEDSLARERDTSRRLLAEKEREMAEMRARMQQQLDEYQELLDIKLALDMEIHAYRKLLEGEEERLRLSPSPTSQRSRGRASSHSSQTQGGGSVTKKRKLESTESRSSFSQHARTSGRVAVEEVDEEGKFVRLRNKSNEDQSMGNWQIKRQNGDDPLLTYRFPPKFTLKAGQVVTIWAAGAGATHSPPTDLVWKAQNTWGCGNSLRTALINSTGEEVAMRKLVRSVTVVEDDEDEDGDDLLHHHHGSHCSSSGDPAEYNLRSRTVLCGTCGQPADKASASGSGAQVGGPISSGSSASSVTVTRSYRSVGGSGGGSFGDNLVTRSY
# Results are given in words; binding and its absence hold for the method and conditions named. In cells and extracts the contact can be indirect. Some entries that bind do so weakly or less than the wild type. Sequences can lack the tags named with a protein.
# How the values were obtained:
# YFP-SNX6 [1] = target: T1, YFP-SNX6 (UniProt Q9UNH7); assay: FRET or BRET; acceptor-photobleaching FRET in 4% PFA-fixed U2OS cells cotransfected with pEYFP-SNX6 and pECFP-Lamin A; control pEYFP with pECFP-Lamin A
# T1 sequence: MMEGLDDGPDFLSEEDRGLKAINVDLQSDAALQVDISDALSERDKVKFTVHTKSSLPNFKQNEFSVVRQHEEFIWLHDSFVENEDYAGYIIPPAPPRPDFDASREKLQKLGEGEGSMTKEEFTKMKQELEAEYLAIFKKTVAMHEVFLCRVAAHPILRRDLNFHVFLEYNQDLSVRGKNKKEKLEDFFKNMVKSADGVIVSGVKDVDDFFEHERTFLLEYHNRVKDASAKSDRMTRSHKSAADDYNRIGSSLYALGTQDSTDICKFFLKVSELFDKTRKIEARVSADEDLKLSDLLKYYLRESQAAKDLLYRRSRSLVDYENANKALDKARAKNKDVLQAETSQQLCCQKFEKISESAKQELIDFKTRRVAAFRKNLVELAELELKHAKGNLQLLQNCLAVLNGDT
# [2] = target: T2, GST-SNX6 fusion protein (sorting nexin 6) (UniProt Q9UNH7); assay: pull-down; purified GST-SNX6 (3 ug) incubated with whole cell extracts (500 ug) in RIPA buffer overnight at 4 C, collected on glutathione-Sepharose 4B, washed three times with RIPA, immunoblot; only the target purified
# T2 sequence: T1 sequence
# YFP-SNX6 [3] = target: T1, YFP-SNX6; assay: co-IP; lysates of U2OS cells transfected with YFP-SNX6 and HA-lamin A; precipitated with anti-GFP, protein A agarose, washes with 1% NP-40/PBS and TNE (500 mM NaCl), blot with anti-HA
substance,measurement,setting,value
CFP-lamin A (from UniProt P02545 1-646),binding,YFP-SNX6 [1],binds
HA-lamin A (from UniProt P02545 1-646),binding,[2],binds
same,binding,YFP-SNX6 [3],binds
